# PubChem BioAssay AID652259 – Drosophila RNAi Screening Center, 2013
# Assay: 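Identify new Wingless signalling regulators in fly cells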 (primary screen)
# Cells: Drosophila clone 8 imaginal disc epithelial cells
# Knock-down reagent: long dsRNA against Drosophila genes
# Challenge: pathway stimulated by co-transfected Wingless expression plasmid
# Measured: 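Firefly luciferase from a tcf-site Wingless reporter, measured alongside co-transfected Renilla luciferase that tracks transfection; pathway stimulated by a Wingless plasmid; the firefly-to-Renilla ratio is not deposited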
# Direction: firefly reporter light: higher = more Wg reporter light, before normalisation; Renilla control light: higher = more transfected or surviving cells
# Hit rule: 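a knock-down is a candidate when at least two out of four statistical tests show it departing from its plate mean; one test alone signals a weak candidate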
# Calls: active = candidate regulator (raises or lowers reporter); inactive = not a candidate
# The screen tested about 22,000 reagents; below is an unselected part of those with a known target gene and a result. Over the whole deposit, 233 (1.1%) were called active. 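Light values are raw, unnormalised plate reads; the ratio scores behind the reporter calls were not deposited.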 A number with no mark means an inactive call. A plus sign joins genes that one reagent is predicted to hit. Not given: the amount of reagent, the time to read-out, the dose of the treatment.
gene,dsRNA,"reporter change call, replicate 1","firefly reporter light, replicate 1","firefly reporter light, replicate 2","Renilla control light, replicate 1","Renilla control light, replicate 2"
Ugt49B2 (UDP-glycosyltransferase family 49 member B2),DRSC16049,,41569,,7984,
AstCC (Allatostatin double C),DRSC02404,,2225,7192,867,3986
Taf12 (TBP-associated factor 12),DRSC16879,Wg reporter activity raised (active),26516,,1770,
CG17684,DRSC07724,,15334,,10857,
CG17684,DRSC21166,,15372,,10547,
AlaRS (Alanyl-tRNA synthetase),DRSC01851,,8451,,4587,
CG31251,DRSC16247,,12851,,1424,
Eglp3 (Entomoglyceroporin 3),DRSC04293,,2482,6930,598,2092
CG31820,DRSC21318,,8.56e5,8.30e5,5.29e5,3.67e5
CG13667,DRSC10028,,3504,,1716,
CG8907,DRSC16453,,2067,7936,1483,2064
CG31523,DRSC12009,,3556,,1574,
CG31523,DRSC12337,,7691,7.32e5,3689,3.53e5
CG33278,DRSC10336,,2356,3968,1696,2781
pps (protein partner of snf),DRSC16057,,18576,,1857,
CG42372 + CG30100,DRSC05602,,18160,,5962,
NimB2 (Nimrod B2),DRSC22645,,5.28e5,5.49e5,1.85e5,1.74e5
vkg (viking),DRSC03632,,2592,7245,845,2230
Jon25Bi (Jonah 25Bi),DRSC03434,,2301,6689,812,1778
Pect (Phosphoethanolamine cytidylyltransferase),DRSC02867,,14853,,2186,
Pect (Phosphoethanolamine cytidylyltransferase),DRSC02868,,2685,8501,1010,2611
stg (string),DRSC17071,Wg reporter activity lowered (active),1306,882,1194,295
CG13670,DRSC10029,,1323,8864,1124,3971
CG31345,DRSC14193,,17056,,4036,
CG31345,DRSC14847,,19738,,5345,
Wdr24 (WD repeat domain 24),DRSC14151,,2371,5216,1074,1734
Tsp (Thrombospondin),DRSC02144,,10387,,4147,
Tsp (Thrombospondin),DRSC02145,,3008,6629,1200,2653

Sorted by “Renilla control light, replicate 1” (low to high): some entries from above.
gene,dsRNA,"reporter change call, replicate 1","firefly reporter light, replicate 1","firefly reporter light, replicate 2","Renilla control light, replicate 1","Renilla control light, replicate 2"
vkg (viking),DRSC03632,,2592,7245,845,2230
CG33278,DRSC10336,,2356,3968,1696,2781
pps (protein partner of snf),DRSC16057,,18576,,1857,
CG31523,DRSC12337,,7691,7.32e5,3689,3.53e5
CG42372 + CG30100,DRSC05602,,18160,,5962,
NimB2 (Nimrod B2),DRSC22645,,5.28e5,5.49e5,1.85e5,1.74e5

The listing continues.
gene,dsRNA,"reporter change call, replicate 1","firefly reporter light, replicate 1","firefly reporter light, replicate 2","Renilla control light, replicate 1","Renilla control light, replicate 2"
"DCTN5-p25 (Dynactin 5, p25 subunit)",DRSC03525,,2567,5827,1004,2234
CG17350,DRSC02611,,2747,4577,939,1862
CG13538,DRSC04180,,4064,6577,886,2416
Slc25A46a,DRSC20125,,2225,7020,1056,2432
CG18609,DRSC06775,,6733,,2860,
CG30043,DRSC06285,,5465,,2183,
CG7458,DRSC11829,,18698,,5216,
CG7458,DRSC21340,,5.37e5,5.74e5,2.40e5,2.00e5
Dmtn (Dementin),DRSC12513,,4267,,1728,
eRF1 (eukaryotic translation release factor 1),DRSC11779,,2176,,1600,
CG7484,DRSC10853,,8386,,3025,
Tengl1 (Testis EndoG-Like 1),DRSC00481,,1497,5660,816,2423
Elba1 (Early boundary activity 1),DRSC00276,,2434,6103,1296,1360
Mid1,DRSC04230,,2849,8144,960,2258
Mid1,DRSC04231,,3664,10380,1201,3536
Mid1,DRSC04308,,3137,7752,972,2833
Mid1,DRSC22773,,5.90e5,6.11e5,2.36e5,2.03e5
Mid1,DRSC22803,,3.60e5,4.03e5,1.86e5,2.13e5
unc-104 (uncoordinated-104),DRSC07710,,8065,,3360,
CG17260,DRSC00497,,10868,,4304,
Rab3GAP1 (RAB3 GTPase activating protein subunit 1),DRSC00291,,3097,5976,909,2153
Rab3GAP1 (RAB3 GTPase activating protein subunit 1),DRSC00703,,4011,10102,1411,3253
